Reference: PMC7819943, “Rice protein-binding microarrays: a tool to detect cis-acting elements near promoter regions in rice”
The list shows a part of the results.

By UniProt entry, the sequences of proteins in these tests, tags left out.
UniProt Q0JBA9, entry or part of it: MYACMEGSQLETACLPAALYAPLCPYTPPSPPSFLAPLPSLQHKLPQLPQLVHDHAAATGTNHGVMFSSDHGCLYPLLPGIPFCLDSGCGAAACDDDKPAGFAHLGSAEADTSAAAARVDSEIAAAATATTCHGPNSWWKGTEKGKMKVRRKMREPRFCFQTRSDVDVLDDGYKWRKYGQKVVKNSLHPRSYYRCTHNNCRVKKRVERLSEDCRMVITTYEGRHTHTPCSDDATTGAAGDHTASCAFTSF

target: OsWRKY34 (Oryza sativa, UniProt Q0JBA9 1-250); test: protein-binding microarray (RPBM); PBS, 2% BSA, 51.3 ng/ul salmon testes DNA, 50 uM zinc acetate, 200 nM TF, 25 C, 1 h; high values mean tight binding; details: protein: recombinant; tags: N-terminal polyhistidine and DsRed monomer fusion (pET32a); label: CyDye5-dUTP incorporated in the synthesized complementary strand; 3' TTTTT single-stranded linker to array surface; dsDNA, one strand shown
Outline: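 The binding signal is fluorescence intensity per array feature (arbitrary units). Readings came from an Axon 4000B scanner after a washed, 2% BSA-blocked, double-stranded custom Agilent array had been incubated for 1 h at 25 °C with 200 nM protein and 50 µM zinc acetate. The protein was a Ni–NTA-purified transcription factor fused N-terminally to polyhistidine and DsRed, expressed in E. coli BL21-CodonPlus.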

Sequence | binding signal
ACGATTCCTCGAGTGCTACAAACGGTTTCGCTACCAACAACGGAGTCACCTAGTGCAG | 9170 fluorescence intensity (a.u.)
TTATTTTCTCCACTCACTACTTGTTCGTTTAGCAATTTGTCGGAGTCACCTAGTGCAG | 8750 fluorescence intensity (a.u.)
TGATAATCTGTGTACCTTTGTGTTCATATGCTATACTCCTCGGAGTCACCTAGTGCAG | 8920 fluorescence intensity (a.u.)
GCTGCTTGACATCTTAGAATGATACTATCTGTTGTTTCTCCGGAGTCACCTAGTGCAG | 9320 fluorescence intensity (a.u.)
TCCATCTCCTCCACACTCTTCTTCTTCTTCTACCTCTCCACGGAGTCACCTAGTGCAG | 8040 fluorescence intensity (a.u.)
GCCGCCACCGCCACCGCCACCGCCACGTCCAGCCTCCGGTCGGAGTCACCTAGTGCAG | 8540 fluorescence intensity (a.u.)
TGCTGTGGGTTAATTCGCCTTTTTCACCTGTGGGCCGGGACGGAGTCACCTAGTGCAG | 12400 fluorescence intensity (a.u.)
CCTCCATTCTTCAGTTTTAATGCATCCTCTTCATCACTTCCGGAGTCACCTAGTGCAG | 11800 fluorescence intensity (a.u.)
TCACGTTTTTCTCAGTGGCTTCTATTCTTTTTTTTTTCCCCGGAGTCACCTAGTGCAG | 10500 fluorescence intensity (a.u.)
TTTTTTTCTGACTAGGATGCCACATCAGCGAAACCACCCACGGAGTCACCTAGTGCAG | 8770 fluorescence intensity (a.u.)
ACTTTTTAAATATGTTTGACCGTTCGTCTTATTCAAAAACCGGAGTCACCTAGTGCAG | 9990 fluorescence intensity (a.u.)
GCCTGGTATCGCTGCTGCTCTGGTTGTCTCTCGTCCTGAGCGGAGTCACCTAGTGCAG | 9870 fluorescence intensity (a.u.)
TTATATGTCCTGAATTCCTGATGGTGTGGTAGTAGTGCGACGGAGTCACCTAGTGCAG | 9530 fluorescence intensity (a.u.)
GACTAACCTGCCTAATTGTCACAGGTCCCACTAGTTCTTGCGGAGTCACCTAGTGCAG | 8280 fluorescence intensity (a.u.)
AAACTATATCATGCTACTTTAGGTATAAAACTAGTGTTTTCGGAGTCACCTAGTGCAG | 8430 fluorescence intensity (a.u.)
GAATAAATAATCTCTTGTGAGCTCTCATACGCCACACATACGGAGTCACCTAGTGCAG | 8820 fluorescence intensity (a.u.)
GCCTCACTGCCTCTACCTCGGCAGGCTCACTCACCTCGCTCGGAGTCACCTAGTGCAG | 12600 fluorescence intensity (a.u.)
TCAGGGTGGGCAGGTTAACGGATGTTGATTGTTGGTGTGTCGGAGTCACCTAGTGCAG | 11700 fluorescence intensity (a.u.)
TTAATCTCTCATGCTTATGCTCATGGCAGCCGACGTCTCCCGGAGTCACCTAGTGCAG | 8370 fluorescence intensity (a.u.)
CATTTACAAATTTTGCCATTAATTCTTTTTTATGTTTCGCCGGAGTCACCTAGTGCAG | 9010 fluorescence intensity (a.u.)
ACACCCTACCAGTTCATTACCAAAATTTTGACCAGAGACACGGAGTCACCTAGTGCAG | 9240 fluorescence intensity (a.u.)
ATTGCCGTGAGCCCGTGACTACTCTTTACTCTTTCTTTTCCGGAGTCACCTAGTGCAG | 13700 fluorescence intensity (a.u.)
AGATCAAGGCACCAAAGACTCTTCTTATACCTTTGTTTCACGGAGTCACCTAGTGCAG | 8810 fluorescence intensity (a.u.)
TTTCTTTGTGATATTCTGGGACCTGTTATTTTTTGGCATTCGGAGTCACCTAGTGCAG | 8880 fluorescence intensity (a.u.)
CTTCAGCTTCTCCATGGTTTTCTTTTTGTTTGCTCCAGCTCGGAGTCACCTAGTGCAG | 8230 fluorescence intensity (a.u.)
AACTATATCTTAGTGTTTTGGGTTGGGACTAGTCTTATATCGGAGTCACCTAGTGCAG | 11600 fluorescence intensity (a.u.)
GACCACACCGTCGACTATGCGCGAGCGCCTGTCCACCATGCGGAGTCACCTAGTGCAG | 9600 fluorescence intensity (a.u.)

Single values from the list:
Under binding signal, GCCTCACTGCCTCTACCTCGGCAGGCTCACTCACCTCGCTCGGAGTCACCTAGTGCAG is listed with 12600 fluorescence intensity (a.u.)
Under binding signal, GCCTGGTATCGCTGCTGCTCTGGTTGTCTCTCGTCCTGAGCGGAGTCACCTAGTGCAG is listed with 9870 fluorescence intensity (a.u.)
Under binding signal, TCCATCTCCTCCACACTCTTCTTCTTCTTCTACCTCTCCACGGAGTCACCTAGTGCAG is listed with 8040 fluorescence intensity (a.u.)
Under binding signal, CATTTACAAATTTTGCCATTAATTCTTTTTTATGTTTCGCCGGAGTCACCTAGTGCAG is listed with 9010 fluorescence intensity (a.u.)

(list continues)

Sequence | binding signal
TCCCACGATCCGATCCCTGCTCGATCTCTTCTACTACCGACGGAGTCACCTAGTGCAG | 8940 fluorescence intensity (a.u.)
ACTAATATACCGCTCCATTTTTCGTGCGAACTGTTTGTTTCGGAGTCACCTAGTGCAG | 10900 fluorescence intensity (a.u.)
ACCACCACCACCACCGTCACCCAACTATTCTATTCTGAATCGGAGTCACCTAGTGCAG | 8260 fluorescence intensity (a.u.)
ATGAAAGCTGTTTGGGTCGGGTTCACTAAATAGTCAGCAACGGAGTCACCTAGTGCAG | 9010 fluorescence intensity (a.u.)
TTTTTATACTAGTACTACTACTAATCAGCTAATCAATCTCCGGAGTCACCTAGTGCAG | 8120 fluorescence intensity (a.u.)
AACCTTGCTCTACACCACAGCATATGTCTCCCATACAACACGGAGTCACCTAGTGCAG | 8150 fluorescence intensity (a.u.)
ATGTGTTTTATCATAAAATTGTATTCTATTGTATTACTTACGGAGTCACCTAGTGCAG | 10300 fluorescence intensity (a.u.)
CCTCCGCCGCGGCGACGTCGAGGGAATCGGGGCGGGGCCGCGGAGTCACCTAGTGCAG | 10000 fluorescence intensity (a.u.)
GCGCTTTCCTGCTCCCTTTTGGATTCAGTTACCATTCCGTCGGAGTCACCTAGTGCAG | 8980 fluorescence intensity (a.u.)
ATATATGGCCTAGTCTCGCATCGATGAATTAAGTTGTAGTCGGAGTCACCTAGTGCAG | 10400 fluorescence intensity (a.u.)
CTGCCTGTTTTCCACACACGGCTTTGCCCGCCGCCACGATCGGAGTCACCTAGTGCAG | 8310 fluorescence intensity (a.u.)
GGTTTCCCTGAGGCATTTATGTTTGACTTGTTACTGTATACGGAGTCACCTAGTGCAG | 9300 fluorescence intensity (a.u.)
TTGACCGAAAGTCATTGGTTTTTATCGGGTTTCATTCGGTCGGAGTCACCTAGTGCAG | 8420 fluorescence intensity (a.u.)
GATAGTGTGTGTGTTTTGGGCTAGACTTTATCAAATAGAACGGAGTCACCTAGTGCAG | 8400 fluorescence intensity (a.u.)
TCGTAGAGATGCATCCAGGGTTTACATTACCGGTTGACCACGGAGTCACCTAGTGCAG | 8740 fluorescence intensity (a.u.)
CAGGTTATAAAACGTTTTGTCTTTAGTCAAAGTCAAACTACGGAGTCACCTAGTGCAG | 8650 fluorescence intensity (a.u.)
ATCGCCGTCGTCTATTATTGTTGTGAAGGGTTGTTGGTTCCGGAGTCACCTAGTGCAG | 9020 fluorescence intensity (a.u.)
CTCATGTGCTATTCCCATTTCTAACGCGCATCCAGCACTACGGAGTCACCTAGTGCAG | 10800 fluorescence intensity (a.u.)
GCAGACCGCGCCTCCTATAAAAGCTTGCCACCACCGCGCGCGGAGTCACCTAGTGCAG | 9030 fluorescence intensity (a.u.)
AGACAAACTCTGGTTTCCGTGTCCAACGTTTGACCGTTCGCGGAGTCACCTAGTGCAG | 11300 fluorescence intensity (a.u.)
CCTTGCGCCTCCGCTTCGCGAGCCTCATCTCCTCGATCTCCGGAGTCACCTAGTGCAG | 9140 fluorescence intensity (a.u.)
CAGCTTCCTAATCACCCTCACATGCATGGTTGCTCGTCATCGGAGTCACCTAGTGCAG | 10700 fluorescence intensity (a.u.)
AGTTTCCAAGTTTCCACTGTATATGTGGTTTGCACTACATCGGAGTCACCTAGTGCAG | 8780 fluorescence intensity (a.u.)
AATGTACGATAATTATTTTCAGTTTAATTTTTTTTACAACCGGAGTCACCTAGTGCAG | 8320 fluorescence intensity (a.u.)
CATCGCCACCACCGCAGCCGCCTCTCAATTAGGAACACGTCGGAGTCACCTAGTGCAG | 10300 fluorescence intensity (a.u.)
ATCTTCTTCTATGCATGAAACAGCCAACTTGATCATTGTTCGGAGTCACCTAGTGCAG | 8350 fluorescence intensity (a.u.)
CCACAACACCGCAACACACTGTCCTTGCTTCTTCATTGATCGGAGTCACCTAGTGCAG | 8750 fluorescence intensity (a.u.)
